In article PMC11574364:
For at least one entry, the source does not settle the construct or the ends of the probe. For some of these results: Protein sequences can lack the tags named with them.

By UniProt entry, the sequences of proteins in these tests, tags left out. Where a name states a change or a piece, a line headed by the entry shows the natural chain unless it says otherwise.
UniProt Q05048: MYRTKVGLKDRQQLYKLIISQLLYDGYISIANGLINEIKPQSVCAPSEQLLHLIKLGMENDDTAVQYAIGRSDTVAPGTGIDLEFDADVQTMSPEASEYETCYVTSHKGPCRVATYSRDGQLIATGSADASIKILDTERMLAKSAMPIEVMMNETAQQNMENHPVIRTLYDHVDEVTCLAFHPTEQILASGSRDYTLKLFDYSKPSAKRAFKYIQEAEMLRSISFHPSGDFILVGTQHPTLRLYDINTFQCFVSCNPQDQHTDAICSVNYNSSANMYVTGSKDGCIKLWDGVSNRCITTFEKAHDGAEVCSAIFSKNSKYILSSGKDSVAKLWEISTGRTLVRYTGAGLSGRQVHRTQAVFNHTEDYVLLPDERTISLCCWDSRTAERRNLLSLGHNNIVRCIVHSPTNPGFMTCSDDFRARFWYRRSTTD
UniProt Q9UL33, whole entry: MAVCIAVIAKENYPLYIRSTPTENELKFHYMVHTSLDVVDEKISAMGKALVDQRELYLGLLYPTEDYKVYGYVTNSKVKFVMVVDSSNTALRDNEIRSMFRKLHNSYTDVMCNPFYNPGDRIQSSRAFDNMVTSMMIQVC
UniProt Q13021: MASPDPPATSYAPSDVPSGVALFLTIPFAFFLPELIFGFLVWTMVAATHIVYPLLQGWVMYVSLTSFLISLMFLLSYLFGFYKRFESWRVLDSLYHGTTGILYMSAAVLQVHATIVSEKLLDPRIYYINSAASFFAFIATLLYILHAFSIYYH

Tests used:
Assay in all cases: human ORF protein microarray
[1] = target: CSTF1 (Homo sapiens) (UniProt Q05048); settings: 5' phosphate; Domain array: 20 mM Tris-HCl pH 7.4, 200 mM KCl, 0.2 mM EDTA, 0.05% NP40, 2 ug/ul heparin, overnight 4 C. ORF array: PBS pH 7.0 with RNase inhibitor, 100 ng RNA, 1 h.; recombinant protein; protein details: N-terminal GST-6xHis; label: internal DY647 at G18; letters put together from the description
[2] = target: T1, FLI1 (Homo sapiens) (UniProt Q01543); settings: 5' phosphate; Domain array: 20 mM Tris-HCl pH 7.4, 200 mM KCl, 0.2 mM EDTA, 0.05% NP40, 2 ug/ul heparin, overnight 4 C. ORF array: PBS pH 7.0 with RNase inhibitor, 100 ng RNA, 1 h.; recombinant protein; protein details: N-terminal GST-6xHis; label: internal DY647 at G18; letters put together from the description
T1 sequence (looked up, limits assumed): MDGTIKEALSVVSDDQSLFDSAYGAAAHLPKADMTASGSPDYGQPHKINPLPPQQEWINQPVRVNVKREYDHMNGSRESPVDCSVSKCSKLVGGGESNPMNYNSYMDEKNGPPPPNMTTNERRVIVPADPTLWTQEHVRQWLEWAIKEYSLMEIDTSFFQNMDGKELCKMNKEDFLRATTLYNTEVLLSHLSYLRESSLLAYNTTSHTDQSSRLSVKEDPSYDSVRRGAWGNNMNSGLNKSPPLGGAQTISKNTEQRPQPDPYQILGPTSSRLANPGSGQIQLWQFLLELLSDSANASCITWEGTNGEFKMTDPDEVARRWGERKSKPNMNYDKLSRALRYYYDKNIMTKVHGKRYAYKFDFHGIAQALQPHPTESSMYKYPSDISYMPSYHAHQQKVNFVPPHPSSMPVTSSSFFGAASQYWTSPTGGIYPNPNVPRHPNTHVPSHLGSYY

[3] = target: TRAPPC2L (Homo sapiens) (UniProt Q9UL33); settings: 5' phosphate; Domain array: 20 mM Tris-HCl pH 7.4, 200 mM KCl, 0.2 mM EDTA, 0.05% NP40, 2 ug/ul heparin, overnight 4 C. ORF array: PBS pH 7.0 with RNase inhibitor, 100 ng RNA, 1 h.; recombinant protein; protein details: N-terminal GST-6xHis; label: internal DY647 at G18; letters put together from the description
[4] = target: T2, TIA1 (Homo sapiens) (UniProt P31483); settings: 5' phosphate; Domain array: 20 mM Tris-HCl pH 7.4, 200 mM KCl, 0.2 mM EDTA, 0.05% NP40, 2 ug/ul heparin, overnight 4 C. ORF array: PBS pH 7.0 with RNase inhibitor, 100 ng RNA, 1 h.; recombinant protein; protein details: N-terminal GST-6xHis; label: internal DY647 at G18; letters put together from the description
T2 sequence (looked up, limits assumed): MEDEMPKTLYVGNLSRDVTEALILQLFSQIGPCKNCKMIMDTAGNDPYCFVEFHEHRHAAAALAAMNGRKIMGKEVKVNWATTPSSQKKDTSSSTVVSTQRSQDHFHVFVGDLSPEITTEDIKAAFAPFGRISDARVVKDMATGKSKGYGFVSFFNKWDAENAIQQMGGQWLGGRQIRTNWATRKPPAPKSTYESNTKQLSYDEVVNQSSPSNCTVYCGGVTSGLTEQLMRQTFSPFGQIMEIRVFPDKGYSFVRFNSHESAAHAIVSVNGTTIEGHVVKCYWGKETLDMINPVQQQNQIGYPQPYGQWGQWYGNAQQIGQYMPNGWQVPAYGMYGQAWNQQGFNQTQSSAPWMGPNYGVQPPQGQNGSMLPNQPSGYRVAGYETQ

[5] = target: T3, C8orf44 (Homo sapiens) (UniProt Q96CB5); settings: 5' phosphate; amino-C6 U at position 18; Domain array: 20 mM Tris-HCl pH 7.4, 200 mM KCl, 0.2 mM EDTA, 0.05% NP40, 2 ug/ul heparin, overnight 4 C. ORF array: PBS pH 7.0 with RNase inhibitor, 100 ng RNA, 1 h.; recombinant protein; protein details: N-terminal GST-6xHis; label: internal Cy5 or DY647
T3 sequence (looked up, limits assumed): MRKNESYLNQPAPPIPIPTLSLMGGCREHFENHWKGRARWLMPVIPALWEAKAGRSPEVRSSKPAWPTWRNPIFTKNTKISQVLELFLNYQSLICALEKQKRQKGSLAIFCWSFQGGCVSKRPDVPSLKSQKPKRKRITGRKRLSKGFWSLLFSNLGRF

[6] = target: T4, FBXL7 (Homo sapiens) (UniProt Q9UJT9); settings: 5' phosphate; amino-C6 U at position 18; Domain array: 20 mM Tris-HCl pH 7.4, 200 mM KCl, 0.2 mM EDTA, 0.05% NP40, 2 ug/ul heparin, overnight 4 C. ORF array: PBS pH 7.0 with RNase inhibitor, 100 ng RNA, 1 h.; recombinant protein; protein details: N-terminal GST-6xHis; label: internal Cy5 or DY647
T4 sequence (looked up, limits assumed): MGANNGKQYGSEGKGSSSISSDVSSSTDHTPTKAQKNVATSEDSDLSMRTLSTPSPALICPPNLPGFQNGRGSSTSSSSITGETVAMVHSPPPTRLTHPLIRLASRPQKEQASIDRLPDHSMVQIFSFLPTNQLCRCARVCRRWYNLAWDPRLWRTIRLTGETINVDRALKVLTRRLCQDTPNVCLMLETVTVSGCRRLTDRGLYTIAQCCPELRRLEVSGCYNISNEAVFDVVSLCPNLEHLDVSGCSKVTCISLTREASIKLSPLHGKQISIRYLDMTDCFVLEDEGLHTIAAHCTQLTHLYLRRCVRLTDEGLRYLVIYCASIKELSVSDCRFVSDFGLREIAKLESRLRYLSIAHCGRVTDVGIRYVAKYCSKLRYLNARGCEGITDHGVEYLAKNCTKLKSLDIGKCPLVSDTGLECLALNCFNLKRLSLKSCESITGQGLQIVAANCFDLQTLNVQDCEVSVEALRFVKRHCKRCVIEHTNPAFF

[7] = tested on: GNAS (Homo sapiens); settings: 5' phosphate; amino-C6 U at position 18; Domain array: 20 mM Tris-HCl pH 7.4, 200 mM KCl, 0.2 mM EDTA, 0.05% NP40, 2 ug/ul heparin, overnight 4 C. ORF array: PBS pH 7.0 with RNase inhibitor, 100 ng RNA, 1 h.; recombinant protein; protein details: N-terminal GST-6xHis; label: internal Cy5 or DY647
[8] = target: MALL (Homo sapiens) (UniProt Q13021); settings: 5' phosphate; amino-C6 U at position 18; Domain array: 20 mM Tris-HCl pH 7.4, 200 mM KCl, 0.2 mM EDTA, 0.05% NP40, 2 ug/ul heparin, overnight 4 C. ORF array: PBS pH 7.0 with RNase inhibitor, 100 ng RNA, 1 h.; recombinant protein; protein details: N-terminal GST-6xHis; label: internal Cy5 or DY647
[9] = target: T5, SLC9A6 (Homo sapiens) (UniProt Q92581); settings: 5' phosphate; amino-C6 U at position 18; Domain array: 20 mM Tris-HCl pH 7.4, 200 mM KCl, 0.2 mM EDTA, 0.05% NP40, 2 ug/ul heparin, overnight 4 C. ORF array: PBS pH 7.0 with RNase inhibitor, 100 ng RNA, 1 h.; recombinant protein; protein details: N-terminal GST-6xHis; label: internal Cy5 or DY647
T5 sequence (looked up, limits assumed): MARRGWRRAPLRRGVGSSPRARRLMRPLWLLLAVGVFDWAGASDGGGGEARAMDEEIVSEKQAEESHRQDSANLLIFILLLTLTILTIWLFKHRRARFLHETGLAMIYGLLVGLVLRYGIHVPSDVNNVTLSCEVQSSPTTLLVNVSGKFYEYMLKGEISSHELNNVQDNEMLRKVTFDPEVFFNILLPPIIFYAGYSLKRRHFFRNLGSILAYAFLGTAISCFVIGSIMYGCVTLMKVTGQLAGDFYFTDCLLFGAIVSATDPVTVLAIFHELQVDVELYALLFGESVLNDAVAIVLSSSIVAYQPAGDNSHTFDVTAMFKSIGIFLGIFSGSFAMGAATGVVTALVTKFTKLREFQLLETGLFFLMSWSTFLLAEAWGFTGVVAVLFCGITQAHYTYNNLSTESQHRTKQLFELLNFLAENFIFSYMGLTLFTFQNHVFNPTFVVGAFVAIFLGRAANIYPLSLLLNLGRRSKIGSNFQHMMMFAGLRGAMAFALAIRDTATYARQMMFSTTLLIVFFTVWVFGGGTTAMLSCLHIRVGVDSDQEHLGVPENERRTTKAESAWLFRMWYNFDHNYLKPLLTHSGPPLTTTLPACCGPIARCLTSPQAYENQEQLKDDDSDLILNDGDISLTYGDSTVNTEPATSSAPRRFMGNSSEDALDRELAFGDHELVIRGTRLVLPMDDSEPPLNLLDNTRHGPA

[10] = target: T6, TXNL4A (Homo sapiens) (UniProt P83876); settings: 5' phosphate; amino-C6 U at position 18; Domain array: 20 mM Tris-HCl pH 7.4, 200 mM KCl, 0.2 mM EDTA, 0.05% NP40, 2 ug/ul heparin, overnight 4 C. ORF array: PBS pH 7.0 with RNase inhibitor, 100 ng RNA, 1 h.; recombinant protein; protein details: N-terminal GST-6xHis; label: internal Cy5 or DY647
T6 sequence (looked up, limits assumed): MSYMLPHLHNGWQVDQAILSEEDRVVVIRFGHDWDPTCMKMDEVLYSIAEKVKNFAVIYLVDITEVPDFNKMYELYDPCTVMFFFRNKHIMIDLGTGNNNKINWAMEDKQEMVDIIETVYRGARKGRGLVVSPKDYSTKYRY

Measured: binding result

CAGUGCAAUGAUGAAAGGGCAU [miR-130b (internal labeling)]
binds: [1] | [2] | [3]

UAGCUUAUCAGACUGAUGUUGA [miR-21 (internal labeling)]
binds: [4]

UGAGGUAGUAGGUUGUGUGGUU [let-7b (internal labeling)]
binds: [5] | [6] | [7] | [8] | [9] | [10]
